Laboratory results reported in doi:10.1101/2024.01.05.574302 (bioRxiv, 2024).

Biological target: T1, gAnkB (aa. 1476-1727) fragment of the neurospecific domain, Trx-His6-3×StrepII fusion (human) (UniProt Q01484)
T1 sequence: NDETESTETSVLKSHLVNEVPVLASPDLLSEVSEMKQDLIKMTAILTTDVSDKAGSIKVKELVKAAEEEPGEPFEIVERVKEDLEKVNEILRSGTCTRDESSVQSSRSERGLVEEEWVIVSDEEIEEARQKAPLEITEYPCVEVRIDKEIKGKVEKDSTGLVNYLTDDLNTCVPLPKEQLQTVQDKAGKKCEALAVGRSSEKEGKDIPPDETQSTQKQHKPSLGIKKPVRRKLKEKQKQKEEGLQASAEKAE
Test: affinity purification with mass spectrometry

binding: no binding
Substance: ATP1A2 (endogenous, mouse brain) (from UniProt Q6PIE5 1-1020)

Results are given in words; binding and its absence hold for the method and conditions named. Binding seen in cells or lysates may run through a third protein. Here binding means that the protein was enriched with, or labelled near, the bait; the list need not be complete. A no says only that the protein was not detected with the bait. Where a sequence is shown, tags or fusion partners need not be part of it.
